Our source for the survivor count and T/C values is PubChem BioAssay AID270 (DTP/NCI, 2004).

For the assay, the system named is BDF1 mice, s.c. Lewis lung carcinoma, T/C %. Put plainly: NCI In Vivo Anticancer Drug Screen. Data for tumor model Lewis Lung Carcinoma (subcutaneous) in B6D2F1 (BDF1) mice. Summed up:
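First, mice carry a transplantable tumor. Next, groups receive either compound or vehicle. Finally, survival or tumor dimensions in the dosed animals are divided by the corresponding control figure.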

The mark [1] stands for this setting: T/C endpoint: median survival time, dose: 25.0 mg/kg/injection, schedule: Q01DX009 (ip), vehicle: saline with Tween-80, higher T/C = longer survival.
The mark [2] stands for this setting: T/C endpoint: median survival time, dose: 50.0 mg/kg/injection, schedule: Q01DX009 (ip), vehicle: saline with Tween-80, higher T/C = longer survival.
Setting [3] is: T/C endpoint: median survival time, dose: 100.0 mg/kg/injection, schedule: Q01DX009 (ip), vehicle: saline with Tween-80, higher T/C = longer survival.

The list shows only some results of the screen, not a fair sample: it gathers tests that were run many times, whatever their T/C, doses with no T/C, and many T/C values between a quarter and a half above the control. Other doses and runs of a compound stand elsewhere. T/C gives the treated animals as a percentage of the vehicle group. Schedules are NCI's codes, read here as Q, the interval in days (D) or hours (H), X, the number of doses. Some T/C values carry the count of animals alive at the toxicity check (mostly the fifth day); where none is given, no animal had died by that day. Some entries give survivors of the animals treated and no T/C: the source files T/C as zero there, which appears to mark a toxic dose or a test without result, not a measured value. Some doses without a T/C left all or most animals alive at the check, yet need not have been tolerated: the source hardly ever lists a survival T/C far under the control, and the zero likely stands for such cases as well. Survivors were counted at the toxicity check, usually on the fifth day, unless a day is given; later deaths do not show. Some doses were run more than once; the values are given in rising order. Where survival is the endpoint, the PubChem record calls one and a half times the control and up active, and a quarter to a half above the control has no call in these data; cut-offs in other NCI protocols can differ.

In the case of `COc1ccc([C@@H]2c3cc4c(cc3C[C@H]3COC(=O)[C@@H]32)OCO4)cc1OC`, for the setting “T/C endpoint: median survival time, dose: 67.0 mg/kg/injection, schedule: Q01DX009 (ip), vehicle: saline with Tween-80, higher T/C = longer survival”, the survivor count was 10 of 10.

Consider `O=C(NC(Cc1ccccc1)C(=O)CCl)OCc1ccccc1` (stereo unspecified), for which the survivor count is reported as 10 of 10 under setting [1], 9 of 10 under setting [2] and 7 of 10 under setting [3].

`CC(C)C1C=C2CCC3C(C)(C(=O)O)CCCC3(C)C2CC1` (stereo unspecified): the survivor count (T/C endpoint: mean tumor weight, dose: 400.0 mg/kg/injection, schedule: Q01DX011 (ip), vehicle: carboxymethylcellulose (CMC), higher T/C = larger tumour) is 0 of 6.

For the compound `C[C@]12CC[C@H](OC3OC(CO)C(O)C(O)C3O)C[C@H]1CC[C@@H]1[C@@H]2CC[C@]2(C)[C@@H](C3=CCOC3=O)CC[C@]12O` (stereo partly specified), the survivor count (T/C endpoint: mean tumor weight, dose: 1.0 mg/kg/injection, schedule: Q01DX011 (ip), vehicle: saline, higher T/C = larger tumour) is on record as 3 of 6 and the survivor count (T/C endpoint: mean tumor weight, dose: 2.0 mg/kg/injection, schedule: Q01DX011 (ip), vehicle: carboxymethylcellulose (CMC), higher T/C = larger tumour) was 0 of 6.

Consider `CC[C@@]1(O)C[C@H](OC2CC(N(C)C)C(OC3CC(O)C(OC4CCC(=O)C(C)O4)C(C)O3)C(C)O2)c2c(cc3c(c2O)C(=O)c2c(O)cccc2C3=O)[C@H]1C(=O)OC` (stereo partly specified), for which the T/C (T/C endpoint: median survival time, dose: 3.0 mg/kg/injection, schedule: Q01DX009 (ip), vehicle: Klucel (hydroxypropylcellulose) (HPC), higher T/C = longer survival) is 125 % of control. Also, the survivor count (T/C endpoint: median survival time, dose: 6.0 mg/kg/injection, schedule: Q01DX009 (ip), vehicle: Klucel (hydroxypropylcellulose) (HPC), higher T/C = longer survival) is 9 of 10.

Regarding `O=C1NC2C(NC(=O)N2Cl)N1Cl` (stereo unspecified), the survivor count was 2 of 6 (T/C endpoint: mean tumor weight, dose: 80.0 mg/kg/injection, schedule: Q01DX011 (ip), vehicle: saline, higher T/C = larger tumour) and 0 of 6 (T/C endpoint: mean tumor weight, dose: 160.0 mg/kg/injection, schedule: Q01DX011 (ip), vehicle: saline, higher T/C = larger tumour).

In the case of `Nc1c(Cl)c(Cl)nc(C(=O)O)c1Cl`, the survivor count was 7 of 10 (T/C endpoint: median survival time, dose: 400.0 mg/kg/injection, schedule: Q02DX009 (ip), vehicle: Klucel (hydroxypropylcellulose) (HPC), higher T/C = longer survival) and 8 of 10 (T/C endpoint: median survival time, dose: 400.0 mg/kg/injection, schedule: Q02DX009 (ip), vehicle: distilled water + Tween-80, higher T/C = longer survival).

As to `C=C1c2[nH]c3ccccc3c2CN2CCC1/C(=C/C)C2` (stereo unspecified), the T/C (T/C endpoint: mean tumor weight, dose: 0.25 mg/kg/injection, schedule: Q01DX011 (ip), vehicle: saline, evaluated on day 12, higher T/C = larger tumour) was 125 % of control.

For the compound `COc1cc2c(cc1OC)-c1ccc3cc4c(cc3c1N(C)C2)OCO4`, the survivor count (T/C endpoint: median survival time, dose: 10.0 mg/kg/injection, schedule: Q01DX009 (ip), vehicle: water, higher T/C = longer survival) was 9 of 9.

Turning to `C=C/C(C)=C/[C@H](C)C(=O)C[C@H](O)CC1CC(=O)NC(=O)C1`, the survivor count by setting is: under setting [2], 10 of 10; under setting [3], 3 of 10; (T/C endpoint: median survival time, dose: 200.0 mg/kg/injection, schedule: Q04DX003 (ip), vehicle: saline with Tween-80, higher T/C = longer survival) 6 of 10.

With `O=NN(CCCl)C(=O)Nc1ccc2c(c1)OCO2`, the survivor count reads like this: (T/C endpoint: median survival time, dose: 12.5 mg/kg/injection, schedule: Q01DX009 (ip), vehicle: saline with Tween-80, higher T/C = longer survival) 10 of 10; under setting [1], 10 of 10; under setting [2], 10 of 10; under setting [3], 10 of 10.

Take `CCC1=C(c2cc(Cl)c3ccccc3c2OCC(=O)O)OC(CC)(C(=O)c2cc(Cl)c3ccccc3c2OCC(=O)O)CC1` (stereo unspecified): the T/C (T/C endpoint: mean tumor weight, dose: 5.3 mg/kg/injection, schedule: Q01DX011 (ip), vehicle: carboxymethylcellulose (CMC), evaluated on day 12, higher T/C = larger tumour) was 125 % of control [5 of 6 alive]. Also, the survivor count reads like this: (T/C endpoint: mean tumor weight, dose: 8.0 mg/kg/injection, schedule: Q01DX011 (ip), vehicle: carboxymethylcellulose (CMC), higher T/C = larger tumour) 0 of 6 and 0 of 7; (T/C endpoint: mean tumor weight, dose: 13.0 mg/kg/injection, schedule: Q01DX011 (ip), vehicle: carboxymethylcellulose (CMC), higher T/C = larger tumour) 0 of 7; (T/C endpoint: mean tumor weight, dose: 20.0 mg/kg/injection, schedule: Q01DX011 (ip), vehicle: carboxymethylcellulose (CMC), higher T/C = larger tumour) 0 of 7; (T/C endpoint: mean tumor weight, dose: 30.0 mg/kg/injection, schedule: Q01DX011 (ip), vehicle: carboxymethylcellulose (CMC), higher T/C = larger tumour) 0 of 7; (T/C endpoint: mean tumor weight, dose: 60.0 mg/kg/injection, schedule: Q01DX011 (ip), vehicle: carboxymethylcellulose (CMC), higher T/C = larger tumour) 0 of 7; (T/C endpoint: mean tumor weight, dose: 120.0 mg/kg/injection, schedule: Q01DX011 (ip), vehicle: carboxymethylcellulose (CMC), higher T/C = larger tumour) 0 of 7. For the same compound, where the note is “T/C endpoint: mean tumor weight, dose: 240.0 mg/kg/injection, schedule: Q01DX011 (ip), vehicle: carboxymethylcellulose (CMC), higher T/C = larger tumour”, the survivor count is on record as 0 of 7.

Consider `CCC1(O)CC(OC2CC(N(C)C)C(OC3CC(O)C(OC4CCC(=O)C(C)O4)C(C)O3)C(C)O2)c2c(cc3c(c2O)C(=O)c2c(O)ccc(O)c2C3=O)C1C(=O)OC` (stereo unspecified), for which the T/C (T/C endpoint: median survival time, dose: 0.47 mg/kg/injection, schedule: Q01DX009 (ip), vehicle: saline with Tween-80, higher T/C = longer survival) was 126 % of control and the T/C (T/C endpoint: median survival time, dose: 0.95 mg/kg/injection, schedule: Q01DX009 (ip), vehicle: saline with Tween-80, higher T/C = longer survival) is 138 % of control. For the same compound, the survivor count by setting is: (T/C endpoint: median survival time, dose: 1.9 mg/kg/injection, schedule: Q01DX009 (ip), vehicle: saline with Tween-80, higher T/C = longer survival) 10 of 10; (T/C endpoint: median survival time, dose: 3.75 mg/kg/injection, schedule: Q01DX009 (ip), vehicle: saline with Tween-80, higher T/C = longer survival) 8 of 10; (T/C endpoint: median survival time, dose: 7.5 mg/kg/injection, schedule: Q01DX009 (ip), vehicle: saline with Tween-80, higher T/C = longer survival) 7 of 10; (T/C endpoint: median survival time, dose: 15.0 mg/kg/injection, schedule: Q01DX009 (ip), vehicle: saline with Tween-80, higher T/C = longer survival) 0 of 10.

Consider `ClCCCN1CCCCC1CCl` (stereo unspecified), for which the survivor count by setting is: (T/C endpoint: median survival time, dose: 25.0 mg/kg/injection, schedule: Q04DX003 (ip), vehicle: saline, higher T/C = longer survival) 9 of 10; (T/C endpoint: median survival time, dose: 50.0 mg/kg/injection, schedule: Q04DX003 (ip), vehicle: saline, higher T/C = longer survival) 4 of 10.

As to `N=C(N)Sc1cc(O)ccc1O`, the T/C is, setting by setting: (T/C endpoint: median survival time, dose: 37.5 mg/kg/injection, schedule: Q01DX009 (ip), vehicle: saline, higher T/C = longer survival) 149 % of control; (T/C endpoint: median survival time, dose: 300.0 mg/kg/injection, schedule: Q01DX009 (ip), vehicle: saline, higher T/C = longer survival) 136 % of control [7 of 10 alive].

As for `O=[N+]([O-])c1ccc(/C=N/c2ncc(Br)s2)o1`, the survivor count by setting is: (T/C endpoint: median survival time, dose: 25.0 mg/kg/injection, schedule: Q01DX009 (ip), vehicle: Klucel (hydroxypropylcellulose) (HPC), higher T/C = longer survival) 9 of 10; (T/C endpoint: median survival time, dose: 50.0 mg/kg/injection, schedule: Q01DX009 (ip), vehicle: Klucel (hydroxypropylcellulose) (HPC), higher T/C = longer survival) 10 of 10; (T/C endpoint: median survival time, dose: 100.0 mg/kg/injection, schedule: Q01DX009 (ip), vehicle: Klucel (hydroxypropylcellulose) (HPC), higher T/C = longer survival) 6 of 10.

In the case of `C=COCC(C)C` (tested in a mixture with another compound), the survivor count by setting is: (T/C endpoint: median survival time, dose: 10.0 mg/kg/injection, schedule: Q01DX009 (ip), vehicle: other, higher T/C = longer survival) 5 of 10; (T/C endpoint: median survival time, dose: 18.75 mg/kg/injection, schedule: Q01DX009 (ip), vehicle: other, higher T/C = longer survival) 1 of 10; (T/C endpoint: median survival time, dose: 37.5 mg/kg/injection, schedule: Q01DX009 (ip), vehicle: other, higher T/C = longer survival) 0 of 10; (T/C endpoint: median survival time, dose: 75.0 mg/kg/injection, schedule: Q01DX009 (ip), vehicle: other, higher T/C = longer survival) 0 of 10; (T/C endpoint: median survival time, dose: 150.0 mg/kg/injection, schedule: Q01DX009 (ip), vehicle: other, higher T/C = longer survival) 0 of 10.

Consider `O=C(O)c1cc(=O)cc(C(=O)O)o1`, for which the survivor count (T/C endpoint: mean tumor weight, dose: 200.0 mg/kg/injection, schedule: Q01DX011 (ip), vehicle: saline, higher T/C = larger tumour) is 2 of 6.

`CC1CCCCN1` (stereo unspecified): the survivor count (T/C endpoint: mean tumor weight, dose: 100.0 mg/kg/injection, schedule: Q01DX011 (ip), vehicle: saline, higher T/C = larger tumour) was 0 of 6.

Regarding `COc1cc(-c2cc(=O)c3c(OC)c(OC)c(OC)c(OC)c3o2)cc(OC)c1OC`, the survivor count (T/C endpoint: mean tumor weight, dose: 400.0 mg/kg/injection, schedule: Q01DX010 (sc), vehicle: steroid suspending solution, higher T/C = larger tumour) is given as 3 of 6.

As to `C=C(C)[C@H]1Cc2c(ccc3c2O[C@@H]2COc4cc(OC)c(OC)cc4[C@@H]2C3=O)O1`, the survivor count (T/C endpoint: mean tumor weight, dose: 0.75 mg/kg/injection, schedule: Q01DX011 (ip), vehicle: water, higher T/C = larger tumour) was 3 of 6.

As to `Cc1ccc(NC(=O)c2ccccc2)cc1[As]=[As]c1cc(NC(=O)c2ccccc2)ccc1C` (stereo unspecified), the survivor count (T/C endpoint: median survival time, dose: 2.5 mg/kg/injection, schedule: Q01DX009 (ip), vehicle: Klucel (hydroxypropylcellulose) (HPC), higher T/C = longer survival) was 10 of 10 and the survivor count (T/C endpoint: median survival time, dose: 5.0 mg/kg/injection, schedule: Q01DX009 (ip), vehicle: Klucel (hydroxypropylcellulose) (HPC), higher T/C = longer survival) was 10 of 10.

For `O=[N+]([O-])c1cccc([N+](=O)[O-])c1Cl`, under “T/C endpoint: mean tumor weight, dose: 83.0 mg/kg/injection, schedule: Q01DX011 (ip), vehicle: other, evaluated on day 12, higher T/C = larger tumour”, the T/C is 129 % of control. For the same compound, the survivor count (T/C endpoint: mean tumor weight, dose: 125.0 mg/kg/injection, schedule: Q01DX011 (ip), vehicle: other, higher T/C = larger tumour) is 2 of 6.
